Reference: publication PMC4465371
No constants are given. Whether binding was seen depends on the method and setting. Binding seen in cells or lysates may run through a third protein. Some entries that bind do so weakly or less than the wild type. Tags and fused reporters may be left off the sequences shown.

Legend:
GST-LASP1 [1] = molecular target: T1, GST-LASP1 (UniProt Q14847); assay: pull-down; GST-LASP1 beads with UACC257 cells; data not shown; only the target purified
T1 sequence: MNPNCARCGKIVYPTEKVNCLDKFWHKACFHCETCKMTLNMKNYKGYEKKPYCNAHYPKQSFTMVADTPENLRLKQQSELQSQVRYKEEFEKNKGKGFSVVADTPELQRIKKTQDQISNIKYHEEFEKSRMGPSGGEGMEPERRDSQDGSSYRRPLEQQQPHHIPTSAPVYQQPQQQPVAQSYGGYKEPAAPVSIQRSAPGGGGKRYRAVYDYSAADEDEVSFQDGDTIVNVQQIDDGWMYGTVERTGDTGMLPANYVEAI

GST-LASP1 [2] = molecular target: T1, GST-LASP1; assay: pull-down; GST-LASP1 beads incubated 2 h with the 20,000xg supernatant of MaMel2 or NHEM homogenate (hypotonic buffer, 4°C lysis), washed three times with PBS, SDS-PAGE and Western blot; only the target purified

binding (GST-LASP1 [1]): binds | binding (GST-LASP1 [2]): binds
B1: zyxin (protein, UniProt Q15942 1-572)
chain: MAAPRPSPAISVSVSAPAFYAPQKKFGPVVAPKPKVNPFRPGDSEPPPAPGAQRAQMGRVGEIPPPPPEDFPLPPPPLAGDGDDAEGALGGAFPPPPPPIEESFPPAPLEEEIFPSPPPPPEEEGGPEAPIPPPPQPREKVSSIDLEIDSLSSLLDDMTKNDPFKARVSSGYVPPPVATPFSSKSSTKPAAGGTAPLPPWKSPSSSQPLPQVPAPAQSQTQFHVQPQPQPKPQVQLHVQSQTQPVSLANTQPRGPPASSPAPAPKFSPVTPKFTPVASKFSPGAPGGSGSQPNQKLGHPEALSAGTGSPQPPSFTYAQQREKPRVQEKQHPVPPPAQNQNQVRSPGAPGPLTLKEVEELEQLTQQLMQDMEHPQRQNVAVNELCGRCHQPLARAQPAVRALGQLFHIACFTCHQCAQQLQGQQFYSLEGAPYCEGCYTDTLEKCNTCGEPITDRMLRATGKAYHPHCFTCVVCARPLEGTSFIVDQANRPHCVPDYHKQYAPRCSVCSEPIMPEPGRDETVRVVALDKNFHMKCYKCEDCGKPLSIEADDNGCFPLDGHVLCRKCHTARAQT
